Source: patent US20110045073A1 (priority 2008, published 2011)
Where a sequence shows no end group, the ends are not given.

Assay: general procedure: Fmoc solid-phase peptide synthesis; preloaded PEG-PS supports
Details: whole synthesis, 214 nm

DSHAKRHHGYKRKFHEKHHSHRGY
final HPLC purity: at least 90%
